Results as given in patent US4005194A, “Treatment of prostatic hyperplasia” (Abbott Laboratories, priority 1975, dated 1977).
Like-named read-outs stand apart in the source and are kept apart here. Not every detail of the peptide structures is certain; ends, links or a residue may be inferred.

Assays:
Sprague Dawley male rat = format: in vivo
Description: Ten Sprague Dawley male rat 22 days of age and weighing 45-50 grams, were randomly divided into two groups. One group received the treatment described below. After 57 days of treatment, the animals from the non-treatment control group and those from the treatment group were sacrificed. The various organs were removed, trimmed of excess tissue and weighed. Body weights were taken weekly. Group I received no treatment; Group II received 10 μg of Compound N twice each day. The results are shown in Table I with each entry showing the mean value of the respective group.

Male rats [1] = format: in vivo, rat; conditions: 0.5 ml bid. subcutaneous of 20 μg/ml, day 105, mean of 5
Male rats [2] = format: in vivo, rat; conditions: treated as in Example 3, 153 days
adult male Holtzman rats = test: Example 5: 21 days of treatment of adult male rats, organ weights; format: in vivo, rat; conditions: 10 μg b.i.d., average
Male rats [3] = format: in vivo, rat; conditions: for Mean weight of the prostatic complex: 116 days; for Total mean prostatic complex weight: 51 days
Description: In an experiment similar to that of Example 5 with Groups I and III being treated as shown, but Group II being treated like Group III except with only 1 μg of Compound N, the test was continued for 51 days, starting with 22-day old male rats, 5 animals per group. The animals were sacrificed on day 52. […] Another three groups of 5 male rats were treated in the identical fashion, but the treatment was extended from the age of 22 days to day 138 (116 days).

[4] = 10 μg twice each day, 57 days, group mean

CCNC(=O)[C@@H]1CCCN1C(=O)[C@H](CCCNC(=N)N)NC(=O)[C@H](CC(C)C)NC(=O)[C@@H](CC(C)C)NC(=O)[C@H](Cc1ccc(O)cc1)NC(=O)[C@H](CO)NC(=O)[C@H](Cc1c[nH]c2ccccc12)NC(=O)[C@H](Cc1c[nH]cn1)NC(=O)[C@@H]1CCC(=O)N1 [Compound N]
Coagulating Glands weight (Sprague Dawley male rat; [4]): 64.5 mg
Dorsal Prostate weight (Sprague Dawley male rat; [4]): 113.2 mg
Lateral Prostate weight (Sprague Dawley male rat; [4]): 74.1 mg
Seminal Vesicles weight (Sprague Dawley male rat; [4]): 292.0 mg
Testes weight (Sprague Dawley male rat; [4]): 2712 mg
Total Prostatic Complex weight (Sprague Dawley male rat; [4]): 398.6 mg
Ventral Prostate weight (Sprague Dawley male rat; [4]): 211.3 mg
Effect on the development of the male sex organs (Sprague Dawley male rat; long-term administration): profound effect
Coagulating Glands weight (Male rats [1]): 113 mg
Dorsal Prostate weight (Male rats [1]): 136 mg
Lateral Prostate weight (Male rats [1]): 72 mg
Seminal Vesicles weight (Male rats [1]): 738 mg
Testes weight (Male rats [1]): 3337 mg
Total Prostatic Complex weight (Male rats [1]): 593 mg
Ventral Prostate weight (Male rats [1]): 386 mg
Coagulating Glands weight (Male rats [2]): 130 mg
Dorsal Prostate weight (Male rats [2]): 153 mg
Epididymis weight (Male rats [2]): 1153 mg
Lateral Prostate weight (Male rats [2]): 82 mg
Seminal Vesicles weight (Male rats [2]): 1046 mg
Testes weight (Male rats [2]): 3181 mg
Total Prostatic Complex weight (Male rats [2]): 688 mg
Ventral Prostate weight (Male rats [2]): 453 mg
Coagulating Glands weight (adult male Holtzman rats): 138 mg
Dorsal Prostate weight (adult male Holtzman rats): 220 mg
Lateral Prostate weight (adult male Holtzman rats): 83 mg
Seminal Vesicles weight (adult male Holtzman rats): 1034 mg
Testes weight (adult male Holtzman rats): 3350 mg
Total Prostatic Complex weight (adult male Holtzman rats): 1066 mg
Ventral Prostate weight (adult male Holtzman rats): 763 mg
Mean weight of the prostatic complex (Male rats [3]; 1 μg (Group II)): 988 mg
Total mean prostatic complex weight (Male rats [3]; 1 μg (low-dose group)): 936 mg
Mean weight of the prostatic complex (Male rats [3]; 10 μg b.i.d. (Group III)): 875 mg
Total mean prostatic complex weight (Male rats [3]; 10 μg b.i.d.): 786 mg
